Common to all, as to test: co-IP
Assay [1] deals with HA-PP2A (UniProt P67775).
Assay [2] addresses HA-PP2A (UniProt P67775). This is another data set of the same source.
Assay [3] deals with Flag-tagged PP4.
Assay [4] concerns the target HA-PP2A (UniProt P67775). The source holds these as a separate data set.
For assay [5], the target named is HA-tagged PP1.

Like-named read-outs stand apart in the source and are kept apart here. No constants are given. Whether binding was seen depends on the method and setting. In cells and extracts the contact can be indirect. For some assays here: Binding can be weak; no strength is given. For some assays here: Sequences can lack the tags named with a protein.

For Flag-p65 (from UniProt Q04206 1-551), the binding entry in assay [1] and in assay [2] was “binds” throughout.

B1: Myc-GdX (protein, UniProt P11441 1-157)
chain: MQLTVKALQGRECSLQVPEDELVSTLKQLVSEKLNVPVRQQRLLFKGKALADGKRLSDYSIGPNSKLNLVVKPLEKVLLEEGEAQRLADSPPPQVWQLISKVLARHFSAADASRVLEQLQRDYERSLSRLTLDDIERLASRFLHPEVTETMEKGFSK
On to B1, for which the binding result in assay [3], in assay [4] and in assay [5] was “no binding” in each case.

These data come from publication doi:10.1101/376103.
